B1: SEQ ID NO 114 (protein)
chain: MNNFECEPAFYTCVEVTAGNRLFYHIVDSDEVSTKILMEFNKMNLPGEVTFLPLNKLDVRDTAYPETNDAIPMISKLRYNPRFDKAFKHVFGKTLICRSMEVSTQLARAFTMDCITLEGDQVSHRGALTGGYYDTRKSRLELQKDVRKAEEELGELEAKLNENLRRNIERINNEIDQLMNQMQQIETQQRKFKASRDSILSEMKMLKEKRQQSEKTFMPKQRSLQSLEASLHAMESTRESLKAELGTDLLSQLSLEDQKRVDALNDEIRQLQQENRQLLNERIKLEGIITRVETYLNENLRKRLDQVEQELNELRETEGGTVLTATTSELEAINKRVKDTMARSEDLDNSIDKTEAGIKELQKSMERWKNMEKEHMDAINHDTKELEKMTNRQGMLLKKKEECMKKIRELGSLPQEAFEKYQTLSLKQLFRKLEQCNTELKKYSHVNKKALDQFVNFSEQKERLIKRQEELDRGYKSIMELMKCT
B2: SEQ ID NO 122 (protein)
chain: MASPTLSPDSSSQEALSAPTCSPTSDSENLSPDELELLAKLEEQNRLLEADSKSMRSMNGSRRNSGSSLVSSSSASSNLSHLEEDTWILWGRIANEWEEWRRRKEKLLKELIRKGIPHHFRAIVWQLLCSATDMPVKNQYSELLKMSSPCEKLIRRDIARTYPEHEFFKGQDSLGQEVLFNVMKAYSLVDREVGYCQGSAFIVGLLLMQMPEEEAFCVFVRLMQEYRLRELFKPSMAELGLCIYQFEYMLQEQLPDLNTHFRSQSFHTSMYASSWFLTLFLTTFPLPVATRVFDIFMYEGLEIVFRVGLALLQVNQTELMQLDMEGMSQYFQRVIPHQFDSCPDKLVLKAYQVKYNPKKMKRLEKEYAAMKSKEMEEQIEIKRLRTENRLLKQRIETLEKGQVTRAQEAEENYVIKRELAVVRQQCSSTAEDLQKAQSTIRQLQEQQVPGG
B3: SEQ ID NO 118 (protein)
chain: MEAAVCSEIEREDGDSSCGDVCFMDKGLHSISELSLDSSIHAINLHCNNISKISSIDHIWNLRHLDLSSNQISQIEGLNTLTKLCTLNLSCNLITRVEGLEALVNLTKLNLSYNHINDLSGLMPLHGLKYKLRYIDLHSNYIDSIHHLLQCTVGLHFLTNLILEKDGEGNPICLIPGYRAIILQTLPQLRILDCKNIFGEPVSLEEINSSHLQCLEGLLDNLVSSDSPLNISEDEVNDDVSAPPMDVLPSLKEFKSTPEDNVLASLLSVCPSSEPEKINQENDFQNEVKLQKLDDQILQLLNETNNSLIDNVPEKDLRPKRDTDITSESDYGNRRECSRKVPRRTKIPYYSRTIQTIKHHNKNNGAFVSCNRKMRQPYLRDLYVRSSLVNCNNLRDLDEQKTGVIKVDKNFSDNSTYRSLVEQLDQEREMRWKAEQTEKKLMDYIDELHKQADEKKDVHSQALITTDRLKDAIFKERHCKAQLEIIVHRLQNEVKKLTIELMKARDQQEDHIRHLRTLERALEKMEKQKAQQQAAQIRLIQEVELKASAADREINLLRTSLHQEKQQVQQLHELLALKEQEHRQEIETRQFFTDAEFQDALTKRLCKEERKHEQEVKEYQEKIDILNQQYLDLENEFRIALTVEARRFKDVQDGFEDVATELAKSKHALIWAQRKENESSSLIKDLTCMVKEQKTKLSEVCKLKQEAAANLQNQINTLEILIEDDKQKSIQIELLKHEKTQLISELAAKESLIYGLRTERKVWGQELACQSSTLSQSRGKLEAQIESLCRENESLRKSHESDCDALRIKCKIIEDQNETIRKLKDSLQEKDGQIKLLQEQIALIEKCSQEQLNEKSPQLDSIVEKLERHNERKEKLKQQLKAKELELEEIRKAYSTLNKKWHDKGELLSHLEMQVKEVKEKFEDKERKLKAERDKSLELQKDAMEKLQNMDDAFRRQVDEIVEAHQAEIMQLANEKQKYIDCANLKGDYARGD
B4: SEQ ID NO 21 (protein)
chain: LRKWKGMLSRLQELRKEEETLLRLKAALHDQLNRLKVEELALQSMINSRGRTETLSSQPAPEQLCDMSLHVDNEVTINQTT
B5: SEQ ID NO 116 (protein)
chain: MMEIQMDEGGGVVVYQDDYCSGSVMSERVSGLAGSIYREFERLIHCYDEEVVKELMPLVVNVLENLDSVLSENQEHEVELELLREDNEQLLTQYEREKALRKQAEEKFIEFEDALEQEKKELQIQVEHYEFQTRQLELKAKNYADQISRLEERESEMKKEYNALHQRHTEMIQTYVEHIERSKMQQVGGSGQTESSLPGRSRKERPTSLNVFPLADGMVRAQMGGKLVPAGDHWHLSDLGQLQSSSSYQCPNDEMSESGQSSAAATPSTTGTKSNTPTSSVPSAAVTPLNESLQPLGDYVSVTKNNKQAREKRNSRNMEVQVTQEMRNVSIGMGSSDEWSDVQDIIDSTPELDVCPETRLERTGSSPTQGIVNKALGINTDSLYHELSTAGSEVIGDVDEGADLLGEFSVRDDFFGMGKEVGNLLLENSQLLETKNALNVVKNDLIAKVDQLSGEQEVLKGELEAAKQAKVKLENRIKELEEELKRVKSEAVTARREPREEVEDVSSYLCTELDKIPMAQRRRFTRVEMARVLMERNQYKERLMELQEAVRWTEMIRASREHPSVQEKKKSTIWQFFSRLFSSSSSPPPAKRSYPSVNIHYKSPTAAGFSQRRSHALCQISAGSRPLEFFPDDDCTSSARREQKREQYRQVREHVRNDDGRLQACGWSLPAKYKQLSPNGGQEDTRMKNVPVPVYCRPLVEKDPSTKLWCAAGVNLSGWKPHEEDSSNGPKPVPGRDPLTCDREGEGEPKSTHPSPEKKKAKETPEADATSSRVWILTSTLTTSKVVIIDANQPGTIVDQFTVCNAHVLCISSIPAASDSDYPPGEMFLDSDVNPEDSGADGVLAGITLVGCATRCNVPRSNCSSRGDTPVLDKGQGDVATTANGKVNPSQSTEEATEATEVPDPGPSESEATTVRPGPLTEHVFTDPAPTPSSSTQPASENGSESNGTIVQPQVEPSGELSTTTSSAAPTMWLGAQNGWLYVHSAVANWKKCLHSIKLKDSVLSLVHVKGRVLVALADGTLAIFHRGEDGQWDLSNYHLMDLGHPHHSIRCMAVVNDRVWCGYKNKVHVIQPKTMQIEKSFDAHPRRESQVRQLAWIGDGVWVSIRLDSTLRLYHAHTHQHLQDVDIEPYVSKMLGTGKLGFSFVRITALLIAGNRLWVGTGNGVVISIPLTETVVLHRGQLLGLRANKTSPTSGEGTRPGGIIHVYGDDSSDKAASSFIPYCSMAQAQLCFHGHRDAVKFFVSVPGNVLATLNGSVLDSPSEGPGPAAPAADAEGQKLKNALVLSGGEGYIDFRIGDGEDDETEECAGDVNQTKPSLSKAERSHIIVWQVSYTPE
B6: SEQ ID NO 10 (protein)
chain: PRKWKGMLSRLQELRKEEETLLRLKAALHDQLNRLKVEELALQSMINSRGRTETLSSQPAPEQLCDMSLHVDNEVTINQTTR
B7: SEQ ID NO 27 (protein)
chain: B6 chain with P1L, T81H, R82K
B8: SEQ ID NO 24 (protein)
chain: B6 chain with P1L, K16N, R82L
B9: SEQ ID NO 16 (protein)
chain: B6 chain with P1L, T81S, R82T
B10: SEQ ID NO 11 (protein)
chain: B6 chain with P1L, S57F
B11: SEQ ID NO 23 (protein)
chain: B6 chain with P1L, K25N, R82L
B12: SEQ ID NO 19 (protein)
chain: B6 chain with P1L, R82L
B13: SEQ ID NO 22 (protein)
chain: B6 chain with P1L, E74K, R82P
B14: SEQ ID NO 25 (protein)
chain: B6 chain with P1L, R10Q, A60V, R82L
B15: SEQ ID NO 20 (protein)
chain: B6 chain with P1L, K25R, L55P, R82L
B16: SEQ ID NO 1 (protein)
chain: MLSRLQELRKEEETLLRLKAALHDQLNRLKVEELALQSMINSRGRTETLSSQPAPEQLCDMSLHVDNEVTINQTTLKLSTRSPMEEEEEEEEEEEEEEESDS
B17: SEQ ID NO 109 (protein)
chain: MMDVSRTQTAVSIVEEDLKLLQLKLRASMSTKCNLEDQIKKLEDDRSSLQTAKAGLEDECKTLRQKVEILNELYQQKEMALQKKLSQEEYERQDREQRLTAADEKVVLAAEEVKTYKRRIEEMEEELQKTERSFKNQIAAHEKKAHDNWLKARAAERAMAEEKREAANLRHKLLEMTQKMAMRQDEPVIVKPMPGRPNTQNPPRRGLLSQNGSFGPSPVSGGECSPPLPAEPPGRPLSATLSRRDTPRSEFGSLDRHLPRPRWPSEASGKHSASDPGPAPVVNSSSRSSSPAKAVDEGKVNMAPKGPPPFPGVPLMGGPVPPPIRYGPPPQLCGGPFGPRPLPPPFVPGMHPPLGVREYAPGVLPGKRDLPLDPREFLPGHTPFRPPGSLGPREFFIPGTRLPPPTHGPQEYPPPPPAVRDSLPSGPREEAKPASPSSVQDRSQASKPTP
B18: SEQ ID NO 15 (protein)
chain: LRKWKGMLSRLQELRKEEETLLRLKAALHDQLNRLKVEELALQSMINSRGRTETLSSQPAPEQLCDMYLHVDNEVTINQTTLKLST
B19: SEQ ID NO 30 (protein)
chain: QRKWKGMLSRLQELRKEEETLLRLKAALHDQLNRLKVEELALQSMINSRGRTETLSSQPA
B20: SEQ ID NO 31 (protein)
chain: REWKGMLSRLQELRKEEETLLRLKAALHDQLNRLKVEELALQSMINSRGRTETLSSQPAPEQLCDMSLHVDNEVTINQTHS
B21: SEQ ID NO 34 (protein)
chain: B20 chain with E2K, N72H, H80T, S81L

Residue numbers refer to the chain shown, from its start. No constants are given. Whether binding was seen depends on the method and setting. Some binding calls cover weakened binding; strength is not graded here.

The target in the assay is bait c-Jun protein from the pCMV-cJun(502-957)CBPzz vector. Nature of the assay: IVV cotranslation selection, bait c-Jun.
As to B1, the binding result is “binds”.
With LEDQIKKLEDDRSSLQTAKAGLEDECKTLRQKVEILNELYQQSR [SEQ ID NO 111] the entry was “binds”.
As to B2, the binding result is reported as “binds”.
As for B3, the binding entry is “binds”.
With B4 the entry was “binds”; with B5, “binds”.
As to B6, the binding entry is on record as “binds”.
Consider B7, for which the binding result was “binds”.
With B8 the entry was “binds”; with B9, “binds”; with B10, “binds”.
With B11 the entry was “binds”; with B12, “binds”; with B13, “binds”.
With B14 the entry was “binds”; with B15, “binds”; with B16, “binds”.
Consider B17, for which the binding entry is listed as “binds”.
For the molecule B18, the binding entry is “binds”.
Regarding B19, the binding result is listed as “binds”.
With RKWKGMLSRLQELRKEEETLLRLKAALHDQLNRLKVEELALQSMINSRGR [SEQ ID NO 33] the entry was “binds”.
The same measure for B20: “binds”; for B21: “binds”.

The values are drawn from patent US20070003534A1.
